Experimental data from patent publication US8420657B2 (Novartis AG, priority 2008, dated 2013).
Some entries share one result that the patent states for a list of compounds. At least one compound was matched to its structure with a doubt left.

Amino acid sequences for entries named in this document (tags omitted). Residues count along the entry.
UniProt P23458, 866-1154: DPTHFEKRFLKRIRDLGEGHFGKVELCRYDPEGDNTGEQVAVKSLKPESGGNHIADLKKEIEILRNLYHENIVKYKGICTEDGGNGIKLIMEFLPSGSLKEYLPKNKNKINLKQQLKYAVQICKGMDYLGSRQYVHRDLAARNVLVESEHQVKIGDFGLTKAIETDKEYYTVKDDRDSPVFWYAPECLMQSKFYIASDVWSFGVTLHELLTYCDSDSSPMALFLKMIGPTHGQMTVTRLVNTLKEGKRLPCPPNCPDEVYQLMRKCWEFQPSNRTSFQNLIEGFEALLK
UniProt P52333, 811-1124: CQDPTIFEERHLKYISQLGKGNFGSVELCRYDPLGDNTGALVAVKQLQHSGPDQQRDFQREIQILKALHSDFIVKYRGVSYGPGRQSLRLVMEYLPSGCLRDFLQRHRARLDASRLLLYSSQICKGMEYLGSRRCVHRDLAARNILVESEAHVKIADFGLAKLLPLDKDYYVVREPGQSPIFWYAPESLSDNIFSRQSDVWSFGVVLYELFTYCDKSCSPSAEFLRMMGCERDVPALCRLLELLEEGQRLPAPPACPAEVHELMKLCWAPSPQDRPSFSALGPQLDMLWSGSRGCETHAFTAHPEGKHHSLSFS

Assays:
Type in all cases: biochemical
Conditions in all cases: range over ex. 1-522
GST-JAK1 (866-1154) = target: T1, GST-JAK1 (866-1154) (Homo sapiens, UniProt P23458); experiment: JAK1 kinase assay (Caliper mobility shift, LabChip 3000)
T1 construct: GST-JAK1 (866-1154); made in house

GST-JAK3(811-1124) = target: T2, GST-JAK3(811-1124) (Homo sapiens, UniProt P52333); experiment: JAK3 kinase assay (Caliper mobility shift, LabChip 3000)
T2 construct: GST-JAK3(811-1124); made in house

GST-TYK2(888-1187) = target: T3, GST-TYK2(888-1187) (Homo sapiens, UniProt P29597); experiment: TYK2 kinase assay (Caliper mobility shift, LabChip 3000)
T3 construct: GST-TYK2(888-1187); made in house
T3 sequence (P29597 888-1187): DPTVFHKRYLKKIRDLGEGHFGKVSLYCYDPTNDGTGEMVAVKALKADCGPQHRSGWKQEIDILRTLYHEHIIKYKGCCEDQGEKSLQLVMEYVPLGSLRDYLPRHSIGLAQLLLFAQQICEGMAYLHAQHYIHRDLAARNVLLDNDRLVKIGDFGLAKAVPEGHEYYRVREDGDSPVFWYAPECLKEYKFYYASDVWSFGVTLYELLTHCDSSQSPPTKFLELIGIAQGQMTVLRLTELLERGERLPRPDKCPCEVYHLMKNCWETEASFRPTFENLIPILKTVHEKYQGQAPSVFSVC

CC(C)Oc1ccc(Nc2ncc3ccn(-c4ccc(S(C)(=O)=O)cc4)c3n2)cc1 [Example 3, (4-Isopropoxy-phenyl)-[7-(4-methanesulfonyl-phenyl)-7H-pyrrolo[2.3-d]pyrimidin-2-yl]-amine]
<0.003->10: JAK1 inhibition IC50-values (GST-JAK1 (866-1154)) | JAK3 inhibition IC50-values (GST-JAK3(811-1124)) | TYK2 inhibition IC50-values (GST-TYK2(888-1187))
